From patent publication US10188754B2, “Compositions and methods for chemical exchange saturation transfer (CEST) based magnetic resonance imaging (MRI)” (THE JOHNS HOPKINS UNIVERSITY, priority 2013, dated 2019)
Where two headings read alike, the source gives them in different places. Marks after values point to notes of the source that are not given here.

Columns and labels:
[1] = format: physicochemical; settings: at 9.3 ppm, ω1=7.2 μT, pH 7.3-7.4
[2] = format: physicochemical; settings: for Contrast (%) / Contrast (% at 3.6 uT): pH 7.3-7.4, tsat = 3 sec, ω1 = 3.6 μT, 37° C.; for Contrast (% at 3.6 uT): Table 6
[3] = CEST experiments on 3.0 T human MRI scanner, detection limit of 42
[4] = Screening of beta-hydroxy carboxylate analogs for CEST contrast (Table 4A)

O=C(O)c1ccccc1O [Compound 1, salicylic acid]
CEST contrast [1]: 4% | Contrast (%) ([2]; Table 1, 10 mM): 6.8%

O=C(O)c1cc([N+](=O)[O-])ccc1O [Compound 14, 5-nitrosalicylic acid]
Contrast (%) ([2]; Table 2, 10 mM): 3.1%

O=C(O)c1ccc(O)cc1O [Compound 16]
Contrast (%) ([2]; Table 2, 10 mM): 7.2%

Nc1ccc(C(=O)O)c(O)c1 [Compound 17]
Contrast (%) ([2]; Table 2, 10 mM): 6.6%

O=C(O)c1ccc(C(=O)O)c(O)c1 [Compound 18]
Contrast (%) ([2]; Table 2, 10 mM): 6.7%

O=C(O)c1ccc([N+](=O)[O-])cc1O [Compound 19, 2-hydroxy-4-nitrobenzoic acid]
Contrast (%) ([2]; Table 2, 10 mM): 6.7%

O=C(O)c1c(O)ccc2ccccc12 [Compound 20, 2-hydroxy-l-naphthoic acid]
Contrast (%) ([2]; Table 3, 10 mM): 3.4%

COc1cccc(O)c1C(=O)O [Compound 21, 6-methoxysalicylic acid]
Contrast (%) ([2]; Table 3, 10 mM): 3.2%

O=C(O)c1c(O)cccc1O [Compound 22, 2,6-dihydroxybenzoic acid]
Contrast (%) ([2]; Table 3, 10 mM): 0.4%

Cc1cccc(C(=O)O)c1O [Compound 23, 3-Methylsalicylic acid]
Contrast (%) ([2]; Table 4, 10 mM): 6.2^ %

CC(C)(C)c1cc(C(=O)O)c(O)c(C(C)(C)C)c1 [Compound 24, 3,5-di-tert-butylsalicylic acid]
Contrast (%) ([2]; Table 4, 20 mM was used because of the low contrast): 1.5^a %

O=C(O)c1cccc(F)c1O [Compound 25]
Contrast (%) ([2]; Table 4, 10 mM): 7.4^ %

O=C(O)c1cc(Cl)cc(Cl)c1O [Compound 26]
Contrast (%) ([2]; Table 4, 10 mM): 6.7^ %

O=C(O)c1cc(Br)cc(Br)c1O [Compound 27, 3,5-Dibromosalicylic acid]
Contrast (%) ([2]; Table 4, 10 mM): 9.1^ %

O=C(O)c1cc(I)cc(I)c1O [Compound 28]
Contrast (%) ([2]; Table 4, 10 mM): 5.3^ %

O=C(O)c1ccc2ccccc2c1O [Compound 29, 1-Hydroxy-2-naphthoic acid]
Contrast (%) ([2]; Table 4, 10 mM): 3.4^ %

O=C(O)c1ccc2cccnc2c1O [Compound 30, 8-hydroxy-7-quinolinecarboxylic acid]
Contrast (%) ([2]; Table 4, 10 mM): 6.4^ %

O=C(O)c1cccc(O)c1O [Compound 31, 2,3-dihydroxybenzoic acid]
Contrast (%) ([2]; Table 4, 10 mM): 5.3^ %

COc1cccc(C(=O)O)c1O [Compound 32, 3-methoxysalicylic acid]
Contrast (%) ([2]; Table 4, 10 mM): 6.5^ %

Nc1cccc(C(=O)O)c1O [Compound 33, 3-aminosalicylic acid]
Contrast (%) ([2]; Table 4, 10 mM): 6.3^ %

O=Cc1cccc(C(=O)O)c1O [Compound 34, 3-Formylsalicylic acid]
Contrast (%) ([2]; Table 4, 10 mM): 7.7^ %

O=C(O)c1cccc(C(=O)O)c1O [Compound 35, 2-hydroxyisophthalic acid]
Contrast (%) ([2]; Table 4, 10 mM): 3.9^ %

O=C(O)c1cccc([N+](=O)[O-])c1O [Compound 36, 3-nitrosalicylic acid]
Contrast (%) ([2]; Table 4, 10 mM): 5.4^ %

O=C(O)c1ccccc1Nc1ccccc1 [Compound 37]
Contrast (%) ([2]; Table 5, 10 mM): 7.4%

CS(=O)(=O)Nc1ccc(N)cc1C(=O)O [Compound 38]
Contrast (%) ([2]; Table 5, 10 mM): 8.4%

CS(=O)(=O)Nc1ccccc1C(=O)O [Compound 39]
Contrast (%) ([2]; Table 5, 10 mM): 7.7%

Cc1ccc(S(=O)(=O)Nc2ccccc2C(=O)O)cc1 [Compound 40]
Contrast (%) ([2]; Table 5, 10 mM): 6.8%

O=C(O)c1ccccc1NC(=O)C(F)(F)F [Compound 41]
Contrast (%) ([2]; Table 5, 10 mM): 3.5%

O=C(O)c1cc(O)c(C(=O)O)cc1O [Compound 42]
Contrast (% at 3.6 uT) ([2]; 10 mM): 17.1% | contrast, % higher than salicylic acid ([2]; using 8 μT on 17/0.6 T scanner): ≤ 300% | CEST contrast at the detection limit ([3]; 0.2 mM, using 8 μT): around 0.5% | contrast, % higher than salicylic acid ([3]; 2.1 μT on the 3 T scanners): approximately 60% | CEST contrast ([3]; 3 T, 0.5 mM, 2.1 μT, at 8.5 ppm): 0.6% | lowest detectable concentration ([3]; clinically useful field strengths): 200 µM | detection limit ([3]; using 8 μT): 0.2 mM

O=C(O)c1cc(C(=O)O)c(O)cc1O [Compound 43, 4,6-dihydroxyisophthalic acid]
Contrast (% at 3.6 uT) ([2]; 10 mM): 13.0%

O=C(O)c1cc2ccccc2c(Cc2c(O)c(C(=O)O)cc3ccccc23)c1O [Compound 44, Pamoic acid]
Contrast (% at 3.6 uT) ([2]; 10 mM): 5.7%

O=C(O)c1ccccc1O [Entry 1]
Contrast (%) ([4]; Concentration 10 mM): 6.8%

O=C(O)CNC(=O)c1ccccc1O [Entry 3]
Contrast (%) ([4]; Concentration 10 mM): 0%

COC(=O)c1ccccc1O [Entry 4]
Contrast (%) ([4]; Concentration 10 mM): 0%

COC(=O)c1cc([N+](=O)[O-])ccc1O [Entry 5]
Contrast (%) ([4]; Concentration 10 mM): 0%

O=[N+]([O-])c1ccccc1O [Entry 6]
Contrast (%) ([4]; Concentration 10 mM): 0%

COC(=O)c1ccc(O)c([N+](=O)[O-])c1 [Entry 7]
Contrast (%) ([4]; Concentration 10 mM): 0%

[O-][n+]1cccc2cccc(O)c21 [Entry 8]
Contrast (%) ([4]; Concentration 10 mM): 0.7%

O=Cc1cc(C(=O)O)ccc1O [Entry 9]
Contrast (%) ([4]; Concentration 10 mM): 0%

O/N=C/c1ccccc1O [Entry 10]
Contrast (%) ([4]; Concentration 10 mM): 0%

O=C(O)c1ccc(O)c(/C=N/CC/N=C/c2cc(C(=O)O)ccc2O)c1 [Entry 11]
Contrast (%) ([4]; Concentration 10 mM): 1.7%

Oc1ccccc1-c1nnn[nH]1 [Entry 13]
Contrast (%) ([4]; Concentration 10 mM): 0%

O=C(O)c1cc(O)ccc1O [Entry 15]
Contrast (%) ([4]; Concentration 10 mM): 7.7%

O=C(O)c1cc(Cl)ccc1O [Entry 17]
Contrast (%) ([4]; Concentration 10 mM): 6.2%

O=C(O)c1cc([N+](=O)[O-])ccc1O [Entry 19]
Contrast (%) ([4]; Concentration 10 mM): 3.1%

O=C(O)c1cc([N+](=O)[O-])cc([N+](=O)[O-])c1O [Entry 20]
Contrast (%) ([4]; Concentration 10 mM): 0%

O=C(O)c1ccc(O)cc1O [Entry 21]
Contrast (%) ([4]; Concentration 10 mM): 7.2%

Nc1ccc(C(=O)O)c(O)c1 [Entry 22]
Contrast (%) ([4]; Concentration 10 mM): 6.6%

O=C(O)c1ccc(C(=O)O)c(O)c1 [Entry 23]
Contrast (%) ([4]; Concentration 10 mM): 6.7%

O=C(O)c1ccc([N+](=O)[O-])cc1O [Entry 24]
Contrast (%) ([4]; Concentration 10 mM): 6.7%

O=C(O)c1c(O)ccc2ccccc12 [Entry 25]
Contrast (%) ([4]; Concentration 10 mM): 3.4%

COc1cccc(O)c1C(=O)O [Entry 26]
Contrast (%) ([4]; Concentration 10 mM): 3.2%

O=C(O)c1c(O)cccc1O [Entry 27]
Contrast (%) ([4]; Concentration 10 mM): 0.4%

Cc1cccc(C(=O)O)c1O [Entry 28]
Contrast (%) ([4]; Concentration 10 mM): 6.2%

O=C(O)c1cccc(F)c1O [Entry 30]
Contrast (%) ([4]; Concentration 10 mM): 7.4%

O=C(O)c1cc(Cl)cc(Cl)c1O [Entry 31]
Contrast (%) ([4]; Concentration 10 mM): 6.7%

O=C(O)c1cc(Br)cc(Br)c1O [Entry 32]
Contrast (%) ([4]; Concentration 10 mM): 9.1%

O=C(O)c1cc(I)cc(I)c1O [Entry 33]
Contrast (%) ([4]; Concentration 10 mM): 5.3%

O=C(O)c1ccc2ccccc2c1O [Entry 34]
Contrast (%) ([4]; Concentration 10 mM): 3.4%

O=C(O)c1ccc2cccnc2c1O [Entry 35]
Contrast (%) ([4]; Concentration 10 mM): 6.4%

O=C(O)c1cccc(O)c1O [Entry 36]
Contrast (%) ([4]; Concentration 10 mM): 5.3%

COc1cccc(C(=O)O)c1O [Entry 37]
Contrast (%) ([4]; Concentration 10 mM): 6.5%

Nc1cccc(C(=O)O)c1O [Entry 38]
Contrast (%) ([4]; Concentration 10 mM): 6.3%

O=Cc1cccc(C(=O)O)c1O [Entry 39]
Contrast (%) ([4]; Concentration 10 mM): 7.7%

O=C(O)c1cccc(C(=O)O)c1O [Entry 40]
Contrast (%) ([4]; Concentration 10 mM): 3.9%

O=C(O)c1cccc([N+](=O)[O-])c1O [Entry 41]
Contrast (%) ([4]; Concentration 10 mM): 5.4%

O=C(O)c1cc(O)c(C(=O)O)cc1O [Entry 42]
Contrast (%) ([4]; Concentration 10 mM): 17.1%

O=C(O)c1cc(C(=O)O)c(O)cc1O [Entry 43]
Contrast (%) ([4]; Concentration 10 mM): 13.0%

O=C(O)c1cc2ccccc2c(Cc2c(O)c(C(=O)O)cc3ccccc23)c1O [Entry 44]
Contrast (%) ([4]; Concentration 10 mM): 5.7%

O=C(O)c1ccc(-c2ccc(F)cc2F)cc1O [Entry 45]
Contrast (%) ([4]; Concentration 25 mM): 19.0%

O=C(O)c1cc(/N=N\c2ccc(S(=O)(=O)Nc3ccccn3)cc2)ccc1O [Entry 46]
Contrast (%) ([4]; Concentration 25 mM): 20%

Nc1ccccc1C(=O)O [Entry 47]
Contrast (%) ([4]; Concentration 25 mM): 0%

CNc1ccccc1C(=O)O [Entry 48]
Contrast (%) ([4]; Concentration 25 mM): 0%

O=C(O)c1ccccc1Nc1ccccc1 [Entry 49]
Contrast (%) ([4]; Concentration 10 mM): 7.4%

O=C(O)c1ccccc1Nc1cccc(C(F)(F)F)c1 [Entry 50]
Contrast (%) ([4]; Concentration 10 mM): 5%

Cc1ccc(Cl)c(Nc2ccccc2C(=O)O)c1Cl [Entry 51]
Contrast (%) ([4]; Concentration 5 mM): 1%

Cc1cccc(Nc2ccccc2C(=O)O)c1C [Entry 52]
Contrast (%) ([4]; Concentration 5 mM): 0%

Cc1cccc(Nc2ccccc2C(=O)O)c1Cl [Entry 53]
Contrast (%) ([4]; Concentration 5 mM): 0%

O=C(O)c1cccnc1Nc1cccc(C(F)(F)F)c1 [Entry 54]
Contrast (%) ([4]; Concentration 10 mM): 0%

CC(=O)Nc1ccccc1C(=O)O [Entry 55]
Contrast (%) ([4]; Concentration 25 mM): 0%

CC(C)(C)OC(=O)Nc1ccccc1C(=O)O [Entry 56]
Contrast (%) ([4]; Concentration 25 mM): 0%

O=C(O)c1ccccc1NC(=O)C(F)(F)F [Entry 57]
Contrast (%) ([4]; Concentration 10 mM): 3.5%

CS(=O)(=O)Nc1ccccc1C(=O)O [Entry 58]
Contrast (%) ([4]; Concentration 10 mM): 7.7%

CS(=O)(=O)Nc1ccc(Cl)cc1C(=O)O [Entry 59]
Contrast (%) ([4]; Concentration 25 mM): 20%

Cc1ccc(NS(C)(=O)=O)c(C(=O)O)c1 [Entry 60]
Contrast (%) ([4]; Concentration 25 mM): 15%

CS(=O)(=O)Nc1ccc(N)cc1C(=O)O [Entry 61]
Contrast (%) ([4]; Concentration 10 mM): 8.4%

Cc1ccc(S(=O)(=O)Nc2ccccc2C(=O)O)cc1 [Entry 62]
Contrast (%) ([4]; Concentration 10 mM): 6.8%

O=C(O)c1ccccc1NS(=O)(=O)C(F)(F)F [Entry 63]
Contrast (%) ([4]; Concentration 25 mM): 0%

O=C(O)c1ccccc1N/N=C\c1ccccc1 [Entry 64]
Contrast (%) ([4]; Concentration 25 mM): 0%
